Results deposited as PubChem BioAssay AID1508597 (Cure First, 2020).
Shown is an unselected part of the about 2,100 reagents, in one setting of the screen. 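Calls flag viability under 80% in either arm, not effects specific to rucaparib; the reference for percent is not stated.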 Some reagents were tested in more than one well and are listed for each. No sequences are given here. The record does not give: the 100% reference.

- Aim: 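Survival screen with siRNA in ovarian cancer cells derived from patients, with or without rucaparib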 (primary screen)
- System: human ovarian carcinoma lines grown from tumours: OCI-P5x (papillary serous) and OCI-C5x (clear cell)
- Knock-down reagent: siRNA pool against human genes, 1.25 pmol siRNA per well
- Time to read-out: 72 h or 96 h, depending on the cell culture
- Conditions: rucaparib 20 µM (about IC30) or vehicle, present until read-out
- Rucaparib or vehicle: Vehicle
- Cell line: OCI-C5x (clear cell)
- Detection: 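ATP luminescence measured at 72 or 96 h according to the culture, then normalised and expressed as percent viability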
- Direction: viability, normalised: higher = more viable cells remaining
- Rule for the call: 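a well counts as a hit if its normalised viability is under 80 percent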
- Calls: active = viability under 80%; inactive = viability 80% or more

| Target gene | technical replicate | viability, normalised (%) | outcome |
| --- | --- | --- | --- |
| SULT1A2 | 1 | 54 | active |
| SULT1A2 | 2 | 45.2 | active |
| SULT1A2 | 3 | 47.4 | active |
| PRDM2 | 1 | 39.5 | active |
| PRDM2 | 2 | 47.1 | active |
| PRDM2 | 3 | 36.7 | active |
| FASTK | 1 | 68.6 | active |
| FASTK | 2 | 59.9 | active |
| FASTK | 3 | 33.6 | active |
| RPS6KB1 | 1 | 53.1 | active |
| RPS6KB1 | 1 | 62.6 | active |
| RPS6KB1 | 2 | 67 | active |
| RPS6KB1 | 2 | 32.6 | active |
| RPS6KB1 | 3 | 48.8 | active |
| RPS6KB1 | 3 | 70.9 | active |
| MAP4K3 | 1 | 70.8 | active |
| MAP4K3 | 2 | 50.4 | active |
| MAP4K3 | 3 | 85.1 | inactive |
| USP16 | 1 | 56.2 | active |
| USP16 | 2 | 68.3 | active |
| USP16 | 3 | 53.8 | active |
| EYA4 | 1 | 44.6 | active |
| EYA4 | 2 | 41 | active |
| EYA4 | 3 | 48 | active |
| PIF1 | 1 | 46.5 | active |
| PIF1 | 2 | 46.2 | active |
| PIF1 | 3 | 51.1 | active |
| KDM5B | 1 | 44.8 | active |
| KDM5B | 2 | 42.1 | active |
| KDM5B | 3 | 34.5 | active |
| PDE8B | 1 | 47.9 | active |
| PDE8B | 2 | 56.4 | active |
| PDE8B | 3 | 36.8 | active |
| PDCD2L | 1 | 53.3 | active |
| PDCD2L | 2 | 54.4 | active |
| PDCD2L | 3 | 50.2 | active |
| ILK | 1 | 97.4 | inactive |
| ILK | 2 | 105 | inactive |
| ILK | 3 | 109 | inactive |

2 entries from above in another layout.
Target gene,technical replicate,"viability, normalised (%)",outcome
RPS6KB1,3,48.8,active
RPS6KB1,3,70.9,active
